Measured values: the supplement of paper PMC7877785
± gives the uncertainty stated by the source. Many entries were measured with a wide error.

Assay: self-splicing fitness, log relative to wild type (ln ratio); higher = more splicing; Tetrahymena group I intron in knt gene, E. coli kanamycin selection, DiMSum; sequences stand for … in CUCUCU…GGAGGGAAAAGUUAUCAGGCAUGCACCUGGUAGCUAGUCUUUAAACCAAUAGAUUGCAUCGGUUUAAAAGGCAAGACCGUCAAAUUGCGGGAAAGGGGUCAACAGCCGUUCAGUACCAAGUCUCAGGGGAAACUUUGAGAUGGCCUUGCAAAGGGUAUGGUAAUAAGCUGACGGACAUGGUCCUAACCACGCAGCCAAGUCCUAAGUCAACAGAUCUUCUGUUGAUAUGGAUGCAGUUCACAGACUAAAUGUCGGUCGGGGAAGAUGUAUUCUUCUCAUAAGAUAUAGUCGGACCUCUCCUUAAUGGGAGCUAGCGGAUGAAGUGAUGCAACACUGGAGCCGCUGGGAACUAAUUUGUAUGCGAAAGUAUAUUGAUUAGUUUUGGAGUACUCGUGGUCG
Summary of the method: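 DiMSum derived fitness as the error-weighted combination of fold changes across replicates, kanamycin versus no kanamycin, normalised to wild type. E. coli BL21(DE3) held the library, which randomised all eight P1ex-region intron nucleotides within the knt kanamycin-resistance gene on pET-22b(+). Six replicate transformations grew overnight at 37°C or 30°C on LB agar with or without 25 μg/mL kanamycin, also containing 100 μg/mL carbenicillin, 50 μM IPTG and 0.2% rhamnose, and pooled colonies were amplicon-sequenced on an Illumina HiSeq 2500.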

## UAAUAGCAAUAUUACGUACC
30 °C
  self-splicing fitness (ln): -2.81 ± 0.59
37 °C
  self-splicing fitness (ln): -1.39 ± 1.2

## AAAGAGCAAUAUUACGUCAA
30 °C
  self-splicing fitness (ln): -3.31 ± 0.18
37 °C
  self-splicing fitness (ln): -2.61 ± 0.19

## CUCGAGCAAUAUUACGUAAA
37 °C
  self-splicing fitness (ln): -2.2 ± 0.78

## UUGAAGCAAUAUUACGCAUC
37 °C
  self-splicing fitness (ln): -2.63 ± 0.62

## CAUUAGCAAUAUUACGAGGU
30 °C
  self-splicing fitness (ln): -3.01 ± 0.27
37 °C
  self-splicing fitness (ln): -2.66 ± 0.3

## GCUGAGCAAUAUUACGCCGU
30 °C
  self-splicing fitness (ln): -4.79 ± 0.51
37 °C
  self-splicing fitness (ln): -0.103 ± 0.24

## GAAGAGCAAUAUUACGGCAA
30 °C
  self-splicing fitness (ln): -2.67 ± 0.78

## CGCGAGCAAUAUUACGGUUG
30 °C
  self-splicing fitness (ln): -1.73 ± 0.068
37 °C
  self-splicing fitness (ln): -1.76 ± 0.12

## UCGUAGCAAUAUUACGGCGC
30 °C
  self-splicing fitness (ln): -3.75 ± 1
37 °C
  self-splicing fitness (ln): -2.43 ± 1.1

## UCCAAGCAAUAUUACGCACG
30 °C
  self-splicing fitness (ln): -3.7 ± 0.6
37 °C
  self-splicing fitness (ln): -2.63 ± 0.54

## UGCAAGCAAUAUUACGCCGC
30 °C
  self-splicing fitness (ln): -4.18 ± 0.72
37 °C
  self-splicing fitness (ln): -2.1 ± 0.64

## GCAAAGCAAUAUUACGAGAC
30 °C
  self-splicing fitness (ln): -4.04 ± 0.52
37 °C
  self-splicing fitness (ln): -2.63 ± 0.43

## CUUAAGCAAUAUUACGGAUA
37 °C
  self-splicing fitness (ln): -3.33 ± 1

## UGGGAGCAAUAUUACGAAAU
37 °C
  self-splicing fitness (ln): -2.88 ± 1.1

## CAGGAGCAAUAUUACGAGAA
30 °C
  self-splicing fitness (ln): -5.31 ± 1

## GUAUAGCAAUAUUACGUACG
30 °C
  self-splicing fitness (ln): -0.281 ± 0.71
37 °C
  self-splicing fitness (ln): -1.22 ± 0.6

## CACGAGCAAUAUUACGUCAA
30 °C
  self-splicing fitness (ln): -2.34 ± 0.17
37 °C
  self-splicing fitness (ln): -2.13 ± 0.23

## GUGGAGCAAUAUUACGUACA
37 °C
  self-splicing fitness (ln): -2.79 ± 0.76

## UGAAAGCAAUAUUACGAAGU
30 °C
  self-splicing fitness (ln): -3.76 ± 0.21
37 °C
  self-splicing fitness (ln): -2.96 ± 0.23

## CGUGAGCAAUAUUACGUCCC
30 °C
  self-splicing fitness (ln): -3.92 ± 0.52

## AUAUAGCAAUAUUACGAGGG
37 °C
  self-splicing fitness (ln): -1.88 ± 1.2

## CUAUAGCAAUAUUACGCCGA
30 °C
  self-splicing fitness (ln): -1.32 ± 0.71

## CACAAGCAAUAUUACGGUUC
30 °C
  self-splicing fitness (ln): -4.1 ± 0.22
37 °C
  self-splicing fitness (ln): -2.66 ± 0.19

## CUAGAGCAAUAUUACGUCGU
37 °C
  self-splicing fitness (ln): -2.19 ± 0.57

## GUGGAGCAAUAUUACGCCGG
37 °C
  self-splicing fitness (ln): -2.36 ± 0.55

## AUCGAGCAAUAUUACGCGCC
37 °C
  self-splicing fitness (ln): -0.309 ± 0.55

## CUCGAGCAAUAUUACGCCCG
30 °C
  self-splicing fitness (ln): -2.39 ± 0.64

## ACAGAGCAAUAUUACGCGUU
30 °C
  self-splicing fitness (ln): -5.14 ± 1

## UUGAAGCAAUAUUACGCCAC
30 °C
  self-splicing fitness (ln): -2.1 ± 0.68
37 °C
  self-splicing fitness (ln): -1.5 ± 0.52

## UUUAAGCAAUAUUACGGAUG
30 °C
  self-splicing fitness (ln): -1.56 ± 0.1
37 °C
  self-splicing fitness (ln): -0.852 ± 0.13

## AGAGAGCAAUAUUACGACUA
37 °C
  self-splicing fitness (ln): -0.808 ± 0.54

## UGCCAGCAAUAUUACGCUUC
30 °C
  self-splicing fitness (ln): -3.19 ± 0.23
37 °C
  self-splicing fitness (ln): -1.86 ± 0.22

## GGCGAGCAAUAUUACGCCUA
30 °C
  self-splicing fitness (ln): -2.33 ± 0.73

## AGAGAGCAAUAUUACGGGUC
30 °C
  self-splicing fitness (ln): -3.72 ± 0.6

## GUAUAGCAAUAUUACGGCAC
37 °C
  self-splicing fitness (ln): -0.152 ± 0.53

## GGCGAGCAAUAUUACGGUAG
30 °C
  self-splicing fitness (ln): -4.89 ± 0.71
37 °C
  self-splicing fitness (ln): -2.94 ± 0.61

## UAGAAGCAAUAUUACGGGGG
30 °C
  self-splicing fitness (ln): -3.59 ± 0.6

## CUUAAGCAAUAUUACGCUCC
30 °C
  self-splicing fitness (ln): -3.01 ± 0.57
37 °C
  self-splicing fitness (ln): -2.37 ± 0.64

## UCUGAGCAAUAUUACGACAA
37 °C
  self-splicing fitness (ln): -1.47 ± 1.2

## UUUUAGCAAUAUUACGCUAU
30 °C
  self-splicing fitness (ln): -4.46 ± 0.72
37 °C
  self-splicing fitness (ln): -3.43 ± 0.52

## CACGAGCAAUAUUACGACCC
37 °C
  self-splicing fitness (ln): -1.07 ± 0.61

## CUGGAGCAAUAUUACGGCCC
30 °C
  self-splicing fitness (ln): -3.41 ± 0.52
37 °C
  self-splicing fitness (ln): -3.08 ± 0.74

## CAUGAGCAAUAUUACGUCGA
37 °C
  self-splicing fitness (ln): -1.54 ± 0.69

## CCGGAGCAAUAUUACGCCAA
30 °C
  self-splicing fitness (ln): -1.96 ± 0.87

## UCCAAGCAAUAUUACGACCG
30 °C
  self-splicing fitness (ln): -2.51 ± 0.56

## GUAUAGCAAUAUUACGGAAG
37 °C
  self-splicing fitness (ln): -1.92 ± 0.27

## CCUAAGCAAUAUUACGGACG
30 °C
  self-splicing fitness (ln): -1.15 ± 0.059
37 °C
  self-splicing fitness (ln): -0.303 ± 0.08

## UACGAGCAAUAUUACGGAGG
30 °C
  self-splicing fitness (ln): -2.06 ± 0.5
37 °C
  self-splicing fitness (ln): -2.27 ± 0.55

## ACGGAGCAAUAUUACGGUAG
30 °C
  self-splicing fitness (ln): -3.95 ± 0.51

## CAAGAGCAAUAUUACGGCCC
30 °C
  self-splicing fitness (ln): -3.39 ± 0.74

## ACUGAGCAAUAUUACGCCAG
30 °C
  self-splicing fitness (ln): -2.93 ± 0.49
37 °C
  self-splicing fitness (ln): -2.78 ± 0.47

## UCUAAGCAAUAUUACGAUUG
30 °C
  self-splicing fitness (ln): -3.4 ± 0.18
37 °C
  self-splicing fitness (ln): -2.26 ± 0.17

## AUGGAGCAAUAUUACGAGAC
30 °C
  self-splicing fitness (ln): -2.65 ± 1.1
37 °C
  self-splicing fitness (ln): -1.8 ± 0.66

## GCACAGCAAUAUUACGCCGC
30 °C
  self-splicing fitness (ln): -2.96 ± 0.64
37 °C
  self-splicing fitness (ln): -2.86 ± 1.1

## CCGGAGCAAUAUUACGACCG
37 °C
  self-splicing fitness (ln): -0.333 ± 0.93

## CAGGAGCAAUAUUACGAGGC
37 °C
  self-splicing fitness (ln): -1.7 ± 0.54

## GGUAAGCAAUAUUACGAUCC
30 °C
  self-splicing fitness (ln): 0.285 ± 1.1
